Source: article doi:10.1101/2020.04.20.049957
Results are given in words; binding and its absence hold for the method and conditions named. In cells and extracts the contact can be indirect. Binding can be weak; no strength is given.

Sequences of proteins named here, by UniProt entry; tags and fusion partners are left off. A change or cut given only in a name is not applied to a line headed by its entry. Residues count along the entry.
UniProt P56726: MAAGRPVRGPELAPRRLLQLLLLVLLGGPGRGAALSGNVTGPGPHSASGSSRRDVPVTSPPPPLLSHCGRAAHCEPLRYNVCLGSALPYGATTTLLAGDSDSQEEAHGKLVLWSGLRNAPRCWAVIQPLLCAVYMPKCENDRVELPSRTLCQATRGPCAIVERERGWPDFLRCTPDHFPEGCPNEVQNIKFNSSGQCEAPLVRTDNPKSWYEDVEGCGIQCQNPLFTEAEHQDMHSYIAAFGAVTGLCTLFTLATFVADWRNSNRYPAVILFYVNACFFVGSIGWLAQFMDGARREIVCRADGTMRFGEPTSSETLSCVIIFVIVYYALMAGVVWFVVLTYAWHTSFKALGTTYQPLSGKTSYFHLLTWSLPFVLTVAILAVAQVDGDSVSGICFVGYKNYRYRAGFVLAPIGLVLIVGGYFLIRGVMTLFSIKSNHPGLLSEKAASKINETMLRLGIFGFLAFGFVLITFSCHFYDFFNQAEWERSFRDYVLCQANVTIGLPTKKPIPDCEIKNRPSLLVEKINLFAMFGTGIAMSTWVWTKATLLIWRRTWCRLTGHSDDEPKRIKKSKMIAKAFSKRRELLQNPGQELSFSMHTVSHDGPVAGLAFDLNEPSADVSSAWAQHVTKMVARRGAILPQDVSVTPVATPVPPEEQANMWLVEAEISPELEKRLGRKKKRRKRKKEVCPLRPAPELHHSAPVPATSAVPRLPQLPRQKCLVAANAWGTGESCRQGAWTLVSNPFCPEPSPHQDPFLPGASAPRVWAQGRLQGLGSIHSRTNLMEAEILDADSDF
UniProt Q15363, residues 21-201: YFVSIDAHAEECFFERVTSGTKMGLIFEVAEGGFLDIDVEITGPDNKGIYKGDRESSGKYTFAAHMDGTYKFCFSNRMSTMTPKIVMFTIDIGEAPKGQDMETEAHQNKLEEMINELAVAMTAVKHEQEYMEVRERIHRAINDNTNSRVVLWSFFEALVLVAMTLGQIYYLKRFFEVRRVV

What was measured:
[1] = target: SMO variant without the C-terminal domain (CTD) (UniProt P56726); experiment: pull-down
[2] = target: SMO variant without the cysteine-rich domain (CRD) (UniProt P56726); experiment: pull-down

- binding [1]: binds
- binding [2]: binds
Substance: TMED2 (in 293T cells) (from UniProt Q15363 21-201)
